Data set [1] has as its target RecA (UniProt P0A7G6). The data set is described as follows: EMSA (glutaraldehyde-fixed). Conditions: pH 8, 1 mM ATP, 10 mM Mg2+; EMSA: 50 mM phosphate/citrate pH 5-8, 50 mM NaCl, 10 mM MgCl2, 1 mM ATP, 25 C, 5 min, then 0.125% glutaraldehyde; commercial …; label: 5'-FITC; single-stranded DNA; scale: reference. (In general: Mobility shift assays separate free from complexed probe on a gel.)

Chains of the proteins cited; added tags and fusions are not shown. Residues count along the entry.
UniProt P0A7G6, 2-353: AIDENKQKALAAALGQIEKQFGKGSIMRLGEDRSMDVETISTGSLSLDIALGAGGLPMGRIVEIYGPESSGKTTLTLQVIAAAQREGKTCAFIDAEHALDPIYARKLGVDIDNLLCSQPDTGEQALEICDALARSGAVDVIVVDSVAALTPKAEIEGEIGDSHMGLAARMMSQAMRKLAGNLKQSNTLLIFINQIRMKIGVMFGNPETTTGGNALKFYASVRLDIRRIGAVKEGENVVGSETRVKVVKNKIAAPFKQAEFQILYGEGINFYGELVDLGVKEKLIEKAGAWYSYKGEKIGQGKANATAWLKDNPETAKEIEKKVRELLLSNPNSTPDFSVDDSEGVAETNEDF

Data set [2] deals with RecA (UniProt P0A7G6). The data set is described as follows: stopped-flow fluorescence. The note with it: pH 8, 1 mM ATP, 10 mM Mg2+, half-time >3000 times that at pH 5 (several minutes); stopped-flow: 20 nM dT79, 1 mM ATP, 10 mM MgCl2; commercial protein; label: 5'-Cy3; single-stranded DNA.

Data on two sequences can be found in publication PMC7655802.

Construct, isoform or probe ends are uncertain for at least one entry. For some assays here: The comparison behind a weaker result is the experiment's own reference, which may not be listed here. For some assays here: The direction of at least one scale is not stated here.

On to “AAATCAATCTAAAGTATATATGAGTAAACTTGGTCTGACAGTTACCAATGCTTAATCAGTGAGGCACCTATCTCAGCGATCTGTCTATTT [90mer oligonucleotide]”, for which, in data set [1], the binding signal worked out at 1.
For “TTTTTTTTTTTTTTTTTTTTTTTTTTTTTTTTTTTTTTTTTTTTTTTTTTTTTTTTTTTTTTTTTTTTTTTTTTTTTTT [dT79]”, in data set [2], the binding result is reported as “binds more weakly”.
